# Reference: PMC4741949
# The exact form of at least one protein or probe is not confirmed. Where cells or extracts were used, other partners may take part.
# Key:
# EGFRvIII (human) [1] = biological target: EGFRvIII (human) (UniProt P00533); experiment: cell binding RT-qPCR; conditions: 2'F-pyrimidines (2'F-C, 2'F-U), RT-qPCR: 15 min 37 C, 100 ug/ml polyinosine, DPBS washes, confocal: DMEM without FBS, UV cross-linking buffer not given, protein on the cell surface
# EGFRvIII (human) [2] = biological target: EGFRvIII (human) (UniProt P00533); experiment: cell binding (method not given); conditions: VS-GB/EGFRvIII cells (no EGFRwt), control cells not recognized; 2'F-pyrimidines (2'F-C, 2'F-U); RT-qPCR: 15 min 37 C, 100 ug/ml polyinosine, DPBS washes; confocal: DMEM without FBS; UV cross-linking buffer not given; protein on the cell surface
# EGFRvIII (human) [3] = biological target: EGFRvIII (human) (UniProt P00533); experiment: flow cytometry; conditions: U87MG/EGFRvIII cells, 2 uM, higher than parental U87MG; 2'F-pyrimidines (2'F-C, 2'F-U); flow cytometry: DPBS, 37 C, 30 min; protein on the cell surface; label: 5' FAM
# EGFRvIII (human) [4] = biological target: EGFRvIII (human) (UniProt P00533); experiment: confocal microscopy; conditions: NIH/EGFRvIII cells, 2.5 uM FAM-CL4, very little to no signal on NIH/ctr; 2'F-pyrimidines (2'F-C, 2'F-U); RT-qPCR: 15 min 37 C, 100 ug/ml polyinosine, DPBS washes; confocal: DMEM without FBS; UV cross-linking buffer not given; protein on the cell surface; label: 5' FAM
Sequence,"binding result (EGFRvIII (human) [1]; NIH/EGFRvIII cells, 200 and 400 nM, dose dependent, 15 min, polyinosine, no binding to NIH/ctr)","binding result (EGFRvIII (human) [1]; U87MG/EGFRvIII cells, higher than parental U87MG)",binding result (EGFRvIII (human) [2]),binding result (EGFRvIII (human) [3]),binding result (EGFRvIII (human) [4])
GCCUUAGUAACGUGCUUUGAUGUCGAUUCGACAGGAGGC [CL4],binds,binds,binds,,
GCCUUAGUAACGUGCUUUGAUGUCGAUUCGACAGGAGGC [FAM-CL4],,,,binds,binds
